# Data as given in PubChem BioAssay AID1224830 (NIAID, 2016)
# Assay: 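Regulators of TLR4 signalling towards TNF-alpha in macrophage-like cells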 (primary screen)
# Cell system: human THP-1 monocytic leukaemia cells, TNF dual-luciferase reporter clone, PMA-differentiated to macrophage-like cells
# Reagent: siRNA pool against human genes, 50 nM
# Time to read-out: LPS for 4 h, given about 3 days after siRNA transfection
# Challenge: bacterial LPS (TLR4 ligand), 10 ng/ml
# Measurement: 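TNF firefly reporter luminescence divided by renilla, normalised to the plate median, then turned into a robust z-score for each replicate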
# Scale: TNF reporter robust z-score: higher = stronger TNF reporter response to LPS
# Hit rule: 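a well is active when its z-score exceeds 2.8 or falls below -1.5; control wells carry no call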
# In all, the deposit lists about 18,000 reagents; below is an unselected part. Of all reagents, about 2,900 (16%) are marked active. 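Calls are made per well; low scores hint the gene aids the LPS response, high scores that it dampens it.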 Unmarked entries are inactive. Repeated entries: four replicate wells of each siRNA pool.
Target gene,PubChem SID,TNF reporter robust z-score
PKIB (cAMP-dependent protein kinase inhibitor beta),SID315450796,0.91
PKIB (cAMP-dependent protein kinase inhibitor beta),SID315450796,1.7
PKIB (cAMP-dependent protein kinase inhibitor beta),SID315450796,1.4
PKIB (cAMP-dependent protein kinase inhibitor beta),SID315450796,1.13
UBASH3B (ubiquitin associated and SH3 domain containing B),SID315460608,0.16
UBASH3B (ubiquitin associated and SH3 domain containing B),SID315460608,0.15
UBASH3B (ubiquitin associated and SH3 domain containing B),SID315460608,0.82
UBASH3B (ubiquitin associated and SH3 domain containing B),SID315460608,0.08
CHST1 (carbohydrate sulfotransferase 1),SID315452634,-0.21
CHST1 (carbohydrate sulfotransferase 1),SID315452634,0.15
CHST1 (carbohydrate sulfotransferase 1),SID315452634,-0.55
CHST1 (carbohydrate sulfotransferase 1),SID315452634,-1.07
CBLB (Cbl proto-oncogene B),SID315447726,0.87
CBLB (Cbl proto-oncogene B),SID315447726,-0.56
CBLB (Cbl proto-oncogene B),SID315447726,-0.71
CBLB (Cbl proto-oncogene B),SID315447726,-0.42
EXOG (exo/endonuclease G),SID315453695,-0.72
EXOG (exo/endonuclease G),SID315453695,0.94
EXOG (exo/endonuclease G),SID315453695,-0.05
EXOG (exo/endonuclease G),SID315453695,0.01
TAF5L (TATA-box binding protein associated factor 5 like),SID315455917,1.3
TAF5L (TATA-box binding protein associated factor 5 like),SID315455917,1.47
TAF5L (TATA-box binding protein associated factor 5 like),SID315455917,0.24
TAF5L (TATA-box binding protein associated factor 5 like),SID315455917,0.81
CEND1 (cell cycle exit and neuronal differentiation 1),SID315456612,0.54
CEND1 (cell cycle exit and neuronal differentiation 1),SID315456612,0.18
CEND1 (cell cycle exit and neuronal differentiation 1),SID315456612,1.43
CEND1 (cell cycle exit and neuronal differentiation 1),SID315456612,0.39
HAL (histidine ammonia-lyase),SID315449150,0.45
HAL (histidine ammonia-lyase),SID315449150,1.18
HAL (histidine ammonia-lyase),SID315449150,0.47
HAL (histidine ammonia-lyase),SID315449150,0.02
CAP2 (cyclase associated actin cytoskeleton regulatory protein 2),SID315454131,0.72
CAP2 (cyclase associated actin cytoskeleton regulatory protein 2),SID315454131,0.41
CAP2 (cyclase associated actin cytoskeleton regulatory protein 2),SID315454131,0.34
CAP2 (cyclase associated actin cytoskeleton regulatory protein 2),SID315454131,0.44
TTPAL (alpha tocopherol transfer protein like),SID315459252,-1.38
TTPAL (alpha tocopherol transfer protein like),SID315459252,-0.52
TTPAL (alpha tocopherol transfer protein like),SID315459252,-0.73
TTPAL (alpha tocopherol transfer protein like),SID315459252,0.48
TREML1 (triggering receptor expressed on myeloid cells like 1),SID315464070,-0.46
TREML1 (triggering receptor expressed on myeloid cells like 1),SID315464070,0.37
TREML1 (triggering receptor expressed on myeloid cells like 1),SID315464070,-0.95
TREML1 (triggering receptor expressed on myeloid cells like 1),SID315464070,-0.53
TPSAB1 (tryptase alpha/beta 1),SID315451960,-1.28
TPSAB1 (tryptase alpha/beta 1),SID315451960,-1.41
TPSAB1 (tryptase alpha/beta 1),SID315451960,-1.2
TPSAB1 (tryptase alpha/beta 1),SID315451960,-1.13
ZNF512B (zinc finger protein 512B),SID315458404,-1.39
ZNF512B (zinc finger protein 512B),SID315458404,-0.61
ZNF512B (zinc finger protein 512B),SID315458404,-0.46
ZNF512B (zinc finger protein 512B),SID315458404,-0.31
DIRAS1 (DIRAS family GTPase 1),SID315462371,-1.06
DIRAS1 (DIRAS family GTPase 1),SID315462371,-1.03
DIRAS1 (DIRAS family GTPase 1),SID315462371,-1
DIRAS1 (DIRAS family GTPase 1),SID315462371,-0.85
TRPM1,SID315449996,-1.18
TRPM1,SID315449996,0.11
TRPM1,SID315449996,-0.73
TRPM1,SID315449996,-0.59
NUDT16L1 (nudix hydrolase 16 like 1),SID315460318,-0.88
NUDT16L1 (nudix hydrolase 16 like 1),SID315460318,2.34
NUDT16L1 (nudix hydrolase 16 like 1),SID315460318,-0.39
NUDT16L1 (nudix hydrolase 16 like 1),SID315460318,-0.16
OPALIN (oligodendrocytic myelin paranodal and inner loop protein),SID315461072,2.14
OPALIN (oligodendrocytic myelin paranodal and inner loop protein),SID315461072,-0.32
OPALIN (oligodendrocytic myelin paranodal and inner loop protein),SID315461072,-0.53
OPALIN (oligodendrocytic myelin paranodal and inner loop protein),SID315461072,-0.93
PLEKHO1 (pleckstrin homology domain containing O1),SID315456533,-0.92
PLEKHO1 (pleckstrin homology domain containing O1),SID315456533,-0.89
PLEKHO1 (pleckstrin homology domain containing O1),SID315456533,-0.83
PLEKHO1 (pleckstrin homology domain containing O1),SID315456533,-1.27
KRT37 (keratin 37),SID315452747,-1.3
KRT37 (keratin 37),SID315452747,-1.07
KRT37 (keratin 37),SID315452747,-1.34
KRT37 (keratin 37),SID315452747,-0.67
